From the supplement of paper PMC11098740 come the findings set out here.

The chains behind the UniProt entries cited, without tags or fusion partners.
UniProt O14980, whole entry: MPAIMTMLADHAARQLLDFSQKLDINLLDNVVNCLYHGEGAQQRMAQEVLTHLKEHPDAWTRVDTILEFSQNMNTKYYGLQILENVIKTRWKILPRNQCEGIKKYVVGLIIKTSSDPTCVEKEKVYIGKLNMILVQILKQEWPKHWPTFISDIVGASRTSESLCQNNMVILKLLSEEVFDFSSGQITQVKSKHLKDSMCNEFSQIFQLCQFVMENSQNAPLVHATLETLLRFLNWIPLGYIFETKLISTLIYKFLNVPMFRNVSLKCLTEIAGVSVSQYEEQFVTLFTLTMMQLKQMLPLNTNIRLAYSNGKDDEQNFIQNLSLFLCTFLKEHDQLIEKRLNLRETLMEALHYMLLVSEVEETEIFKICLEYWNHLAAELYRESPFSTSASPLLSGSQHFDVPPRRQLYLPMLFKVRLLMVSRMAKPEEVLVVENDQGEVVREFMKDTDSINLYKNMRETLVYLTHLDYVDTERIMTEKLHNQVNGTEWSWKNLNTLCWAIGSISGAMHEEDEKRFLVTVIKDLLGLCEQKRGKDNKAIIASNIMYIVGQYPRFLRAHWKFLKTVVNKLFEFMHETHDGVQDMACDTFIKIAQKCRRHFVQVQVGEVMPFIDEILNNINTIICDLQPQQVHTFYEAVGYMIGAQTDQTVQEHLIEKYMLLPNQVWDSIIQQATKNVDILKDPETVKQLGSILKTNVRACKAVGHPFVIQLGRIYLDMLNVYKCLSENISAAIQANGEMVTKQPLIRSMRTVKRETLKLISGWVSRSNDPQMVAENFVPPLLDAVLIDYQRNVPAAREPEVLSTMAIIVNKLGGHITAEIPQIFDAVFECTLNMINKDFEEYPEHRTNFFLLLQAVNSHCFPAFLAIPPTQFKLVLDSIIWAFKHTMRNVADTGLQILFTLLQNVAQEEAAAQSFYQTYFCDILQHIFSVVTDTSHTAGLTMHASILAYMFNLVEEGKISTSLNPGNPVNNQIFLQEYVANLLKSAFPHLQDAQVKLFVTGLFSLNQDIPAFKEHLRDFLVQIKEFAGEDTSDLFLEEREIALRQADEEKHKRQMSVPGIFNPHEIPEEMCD

Structures are written as SMILES. The list shows a part of the results. Many values rest on one well or one pass, so single values are uncertain.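 Pooled together, 41 HAP1 clones carry intronic fluorescent tags on 61 cancer-associated proteins, and each clone is recognized by its imaging pattern. Measurements are benchmarked against DMSO-treated control wells. dBET6, a BRD4 degrader, served as the positive control.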

Assay [1] has as its target XPO1 (intron 15 mScarlet tag, HAP1) (UniProt O14980). As to the kind of experiment: XPO1 fluorescence intensity change vs DMSO (log2 fold change); higher = more XPO1 protein. The note with it: 6 h.
For assay [2], the target named is BRD4 (intron 10 mScarlet tag, HAP1) (UniProt O60885). Description: BRD4 median nuclear fluorescence intensity change vs DMSO (log2 fold change); higher = more BRD4 protein. To be noted: 6 h.

Consider `O=C(Nc1ncc(Cc2ccc(F)cc2)s1)c1ccc2c(c1)OCO2` (1 µM), for which, in assay [1], the “XPO1 fluorescence intensity change (log2)” value was -0.108. For the same compound, the “BRD4 median nuclear fluorescence intensity change (log2)” value in assay [2] was -0.058.
For the compound `COc1ccc(Cl)cc1NC(=O)CN(C)C(=O)c1cn2ccc(C)cc2n1` (10 µM), the “XPO1 fluorescence intensity change (log2)” value in assay [1] was -0.0908. Further, in assay [2], the “BRD4 median nuclear fluorescence intensity change (log2)” value is -0.033.
As for `COc1ccc2nc(C)cc(Sc3nnnn3C)c2c1` (10 µM), in assay [1], the “XPO1 fluorescence intensity change (log2)” value is -0.072. Also, in assay [2], the “BRD4 median nuclear fluorescence intensity change (log2)” value was -0.0188.
Take `Cc1cccc(C)c1CNc1cc(C(N)=O)ccc1CN(C)C` (1 µM): in assay [1], the “XPO1 fluorescence intensity change (log2)” value is -0.0263. The “BRD4 median nuclear fluorescence intensity change (log2)” value in assay [2] was -0.0281.
Regarding `COc1cc(/C=C/C(=O)c2ccc(O)c(CCCl)c2)cc(OC)c1` (10 µM), the “XPO1 fluorescence intensity change (log2)” value in assay [1] was -0.766. The “BRD4 median nuclear fluorescence intensity change (log2)” value in assay [2] was -0.0663.
`CCOC(=O)c1sc2nc(CCl)nc(N)c2c1C` (10 µM): in assay [1], the “XPO1 fluorescence intensity change (log2)” value is -0.178. Further, in assay [2], the “BRD4 median nuclear fluorescence intensity change (log2)” value was 0.0152.
For the compound `O=C(Nc1cccnc1N1CCCC1)c1csc(-c2ccsc2)n1` (10 µM), the “XPO1 fluorescence intensity change (log2)” value in assay [1] was -0.121. Besides, the “BRD4 median nuclear fluorescence intensity change (log2)” value in assay [2] is -0.0388.
`O=C1CN(C(=O)c2cc(Cl)sc2Cl)c2ccccc2N1` (10 µM): the “XPO1 fluorescence intensity change (log2)” value in assay [1] was determined as 0.00628. In addition, the “BRD4 median nuclear fluorescence intensity change (log2)” value in assay [2] came to 0.0611.
With `Cc1ccc(C(=O)N(CC(=O)Nc2ccccc2Br)Cc2ccco2)cc1` (10 µM), the “XPO1 fluorescence intensity change (log2)” value in assay [1] was 0.0652. Further, the “BRD4 median nuclear fluorescence intensity change (log2)” value in assay [2] is -0.0141.
On the same counts, the results for `CN1CC(C(=O)OCC(=O)c2c(-c3ccccc3)[nH]c3ccccc23)CC1=O` (stereo not drawn) (10 µM) are -0.0511 and 0.00326.
As for `CCNc1nc(-c2cccnc2)nc2sc(C)c(C)c12` (10 µM), in assay [1], the “XPO1 fluorescence intensity change (log2)” value is 0.177. Also, the “BRD4 median nuclear fluorescence intensity change (log2)” value in assay [2] is 0.0466.
On the same counts, the results for `Cc1ccc(Cc2cnc(NC(=O)CCc3ccco3)s2)cc1Cl` (1 µM) are 0.37 and 0.0894.
`Oc1c(C(c2ccncc2)N2CCCC2)ccc2cccnc12` (stereo not drawn) (10 µM): the “XPO1 fluorescence intensity change (log2)” value in assay [1] worked out at 0.159. The “BRD4 median nuclear fluorescence intensity change (log2)” value in assay [2] is 0.0569.
`CCOC(=O)C1=C(C)NC(SC)=C(C#N)C1CC(C)C` (stereo not drawn) (0.1 µM): the “XPO1 fluorescence intensity change (log2)” value in assay [1] was -0.139. The “BRD4 median nuclear fluorescence intensity change (log2)” value in assay [2] was 0.0339.
With `CC(C)N(C[C@H]1O[C@@H](n2cnc3c(N)ncnc32)[C@H](O)[C@@H]1O)[C@H]1C[C@@H](CCc2nc3cc(C(C)(C)C)ccc3[nH]2)C1` (10 µM), the “XPO1 fluorescence intensity change (log2)” value in assay [1] was -0.177. For the same compound, in assay [2], the “BRD4 median nuclear fluorescence intensity change (log2)” value was -0.0187.
Regarding `COc1ccc(-n2c(CCl)nc3ccccc32)cc1` (10 µM), the “XPO1 fluorescence intensity change (log2)” value in assay [1] is -0.0863. In addition, the “BRD4 median nuclear fluorescence intensity change (log2)” value in assay [2] came to 0.0219.
With `N#CC1=C(N)Oc2cc(N)ccc2C1C1CCCCC1` (stereo not drawn) (10 µM), in assay [1], the “XPO1 fluorescence intensity change (log2)” value was found to be 0.075. In addition, the “BRD4 median nuclear fluorescence intensity change (log2)” value in assay [2] came out at 0.105.
As to `Cc1ccccc1N1CCN(C(=O)c2cn[nH]c2-c2ccccc2)CC1` (1 µM), in assay [1], the “XPO1 fluorescence intensity change (log2)” value was -0.0674. Besides, the “BRD4 median nuclear fluorescence intensity change (log2)” value in assay [2] is -0.0506.
Take `CCOc1ccc(S(=O)(=O)Nc2cc(C(=O)OC)ccc2C)cc1` (1 µM): in assay [1], the “XPO1 fluorescence intensity change (log2)” value is 0.045. For the same compound, the “BRD4 median nuclear fluorescence intensity change (log2)” value in assay [2] was found to be 0.0151.
Consider `COc1cc2c(=O)[nH]c(-c3ccc(O)cc3)nc2cc1OC(F)F` (10 µM), for which the “XPO1 fluorescence intensity change (log2)” value in assay [1] came out at 0.0487. For the same compound, the “BRD4 median nuclear fluorescence intensity change (log2)” value in assay [2] is 0.056.
Regarding `O=[N+]([O-])c1ccc(O)c2ncccc12` (10 µM), the “XPO1 fluorescence intensity change (log2)” value in assay [1] is -0.0768. The “BRD4 median nuclear fluorescence intensity change (log2)” value in assay [2] is -0.048.
With `CCOc1c(Cl)cc(C(=O)Nc2cccc3cn[nH]c23)cc1OC` (10 µM), the “XPO1 fluorescence intensity change (log2)” value in assay [1] was -0.0509. Also, the “BRD4 median nuclear fluorescence intensity change (log2)” value in assay [2] was -0.0108.
On the same counts, the results for `O=C(CN1CCN(c2nc(N3CCCC3)nc(N3CCCC3)n2)CC1)NC1CC1` (10 µM) are -0.0774 and 0.0777.
`Cc1cccc(CSCC(=O)Nc2nc(-c3ccccn3)cs2)c1` (10 µM): the “XPO1 fluorescence intensity change (log2)” value in assay [1] is -0.0408. In assay [2], the “BRD4 median nuclear fluorescence intensity change (log2)” value was -0.0261.
With `O=C(CSc1nc2ccccc2[nH]1)Nc1ccc(Br)cn1` (0.1 µM), the “XPO1 fluorescence intensity change (log2)” value in assay [1] was determined as 0.0196. Further, the “BRD4 median nuclear fluorescence intensity change (log2)” value in assay [2] was -0.00479.
Consider `O=C(/C=C/c1ccccc1OC(F)(F)F)c1ccc(O)c(CCCl)c1` (10 µM), for which the “XPO1 fluorescence intensity change (log2)” value in assay [1] was -0.103. The “BRD4 median nuclear fluorescence intensity change (log2)” value in assay [2] was 0.0479.
In the case of `CCOc1ccc(NC(=O)Nc2ccccc2F)cc1` (1 µM), the “XPO1 fluorescence intensity change (log2)” value in assay [1] amounted to 0.183. The “BRD4 median nuclear fluorescence intensity change (log2)” value in assay [2] is 0.0149.
For `Cn1c(=O)c(F)c(Nc2ccc(I)cc2F)c2c(=O)n(C[C@@H](O)CO)cnc21` (10 µM), the “XPO1 fluorescence intensity change (log2)” value in assay [1] came to 0.0419. Moreover, the “BRD4 median nuclear fluorescence intensity change (log2)” value in assay [2] was 0.0323.
In the case of `O=C(NCCc1c(F)cccc1F)c1cc2c(nc3sccn32)s1` (1 µM), the “XPO1 fluorescence intensity change (log2)” value in assay [1] was -0.184. For the same compound, in assay [2], the “BRD4 median nuclear fluorescence intensity change (log2)” value was -0.0176.
Take `O=C(/C=C/c1cn(Cc2ccccc2)nc1-c1cccnc1)c1ccc(O)c(CCCl)c1` (10 µM): the “XPO1 fluorescence intensity change (log2)” value in assay [1] is -0.0359. For the same compound, the “BRD4 median nuclear fluorescence intensity change (log2)” value in assay [2] was 0.0378.
As to `CN(CCC(=O)NC(=O)NC12CC3CC(CC(C3)C1)C2)CCc1ccccn1` (10 µM), the “XPO1 fluorescence intensity change (log2)” value in assay [1] is -0.0389. The “BRD4 median nuclear fluorescence intensity change (log2)” value in assay [2] turned out to be 0.0961.
Consider `COc1cc(C(=O)OCCOc2ccccc2F)cc(OC)c1OC` (10 µM), for which the “XPO1 fluorescence intensity change (log2)” value in assay [1] was -0.0348. Moreover, the “BRD4 median nuclear fluorescence intensity change (log2)” value in assay [2] is 0.016.
On the same counts, the results for `CCN(CC)Cc1ccc(O)c2ncccc12` (1 µM) are -0.0237 and -0.0553.
Consider `CC1CCc2c(sc3nc(CCl)nc(N)c23)C1` (stereo not drawn) (10 µM), for which, in assay [1], the “XPO1 fluorescence intensity change (log2)” value is -0.202. For the same compound, the “BRD4 median nuclear fluorescence intensity change (log2)” value in assay [2] was -0.056.
On the same counts, the results for `Cc1noc(C)c1COc1cccc(C(=O)OCC(=O)c2ccc(F)cc2)c1` (0.1 µM) are 0.0937 and 0.155.
For `CCOC(=O)C1=C(CCl)NC(=O)NC1c1ccc(C)o1` (stereo not drawn) (10 µM), in assay [1], the “XPO1 fluorescence intensity change (log2)” value was -0.245. The “BRD4 median nuclear fluorescence intensity change (log2)” value in assay [2] is -0.0187.
As to `Cc1cc(Sc2ccc3c(c2)OCCCO3)n2ncnc2c1` (10 µM), the “XPO1 fluorescence intensity change (log2)” value in assay [1] was -0.0383. Also, the “BRD4 median nuclear fluorescence intensity change (log2)” value in assay [2] came to 0.183.
Consider `ClCc1nc(-c2ccccc2Cl)c2cc(Cl)ccc2n1` (10 µM), for which the “XPO1 fluorescence intensity change (log2)” value in assay [1] is -0.109. In assay [2], the “BRD4 median nuclear fluorescence intensity change (log2)” value is -0.0948.
In the case of `COc1ccc(C2NC(=O)c3ccc(Cl)cc3N2)c(OC)c1OC` (stereo not drawn) (10 µM), the “XPO1 fluorescence intensity change (log2)” value in assay [1] is -0.21. Moreover, in assay [2], the “BRD4 median nuclear fluorescence intensity change (log2)” value is -0.00939.
